## Drug screen on melanoma cell lines: cell count

From a melanoma drug combination screen (doi:10.1371/journal.pone.0140310); values rounded.

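The test systems are human melanoma cell lines, treated with two drugs together for 72 h and then stained and imaged. Values are the number of DAPI-stained nuclei as a percentage of the DMSO control: 100 is no effect, lower means fewer cells. Concentrations were fixed for each drug; these are the lower of two levels, a fifth of the higher. No replicate spread is given; individual values may be noisy.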 Only some of the drugs and lines screened are listed, without regard to their results. A dash means that no value is listed here.

Drug key:
GW441756 (400 nM): Cn1cc(/C=C2\C(=O)Nc3cccnc32)c2ccccc21
embelin (1200 nM): CCCCCCCCCCCC1=C(O)C(=O)C=C(O)C1=O
Src-I1 (2000 nM): COc1cc2ncnc(Nc3ccc(Oc4ccccc4)cc3)c2cc1OC
FH535 (1000 nM): Cc1cc([N+](=O)[O-])ccc1NS(=O)(=O)c1cc(Cl)ccc1Cl
PLX4720 (80 nM): CCCS(=O)(=O)Nc1ccc(F)c(C(=O)c2c[nH]c3ncc(Cl)cc23)c1F
A-769662 (2000 nM): N#Cc1c(O)c2c(-c3ccc(-c4ccccc4O)cc3)csc2[nH]c1=O
IMD-0354 (16 nM): O=C(Nc1cc(C(F)(F)F)cc(C(F)(F)F)c1)c1cc(Cl)ccc1O
L-779450 (200 nM): Oc1cc(-c2nc(-c3ccccc3)[nH]c2-c2ccncc2)ccc1Cl
NVP-TAE684 (80 nM): COc1cc(N2CCC(N3CCN(C)CC3)CC2)ccc1Nc1ncc(Cl)c(Nc2ccccc2S(=O)(=O)C(C)C)n1

Combination	A375	A2058	C32	A101D
Src-I1 + PLX4720	-	109	99.0	84.3
embelin + Src-I1	99.4	112	99.0	113
Src-I1 + A-769662	105	101	100	98.2
NVP-TAE684 + L-779450	71.6	87.9	74.7	81.9
A-769662 + embelin	130	92.8	98.9	119
FH535 + A-769662	76.7	99.5	120	93.5
A-769662 + NVP-TAE684	91.6	89.2	101	105
IMD-0354 + Src-I1	-	93.3	96.9	105
embelin + FH535	96.1	111	102	76.3
GW441756 + IMD-0354	-	103	90.3	100
L-779450 + IMD-0354	-	105	96.4	89.5
NVP-TAE684 + PLX4720	-	91.6	91.8	96.6
L-779450 + GW441756	79.8	105	79.6	93.9
A-769662 + IMD-0354	-	109	112	93.8
NVP-TAE684 + embelin	103	102	103	110
L-779450 + A-769662	98.6	109	93.7	91.9
embelin + IMD-0354	-	100	93.7	105
NVP-TAE684 + Src-I1	88.6	94.1	105	116
GW441756 + NVP-TAE684	77.7	76.6	104	94.3
NVP-TAE684 + IMD-0354	-	94.0	97.8	87.9
FH535 + NVP-TAE684	79.0	93.5	88.2	81.3
Src-I1 + L-779450	79.3	129	87.9	95.6
L-779450 + embelin	82.5	101	85.5	102
IMD-0354 + FH535	-	92.9	108	93.5

For reference, 2 entries once more:

Combination,A375,A2058,C32,A101D
embelin + IMD-0354,-,100,93.7,105
FH535 + A-769662,76.7,99.5,120,93.5